In patent US20030108554A1 (published 2003):
These are yes or no findings as the source states them, for the method shown. Binding calls can cover weak binding; strength is not graded here.

Biological target: pol κ76
Test: yeast two-hybrid

- binding: binds
B1: I-20 (other)
chain: RDEVIGILKAEKMDLALLEAQYGFVTPKKVLEALQRDAFQAKSTPWQEDIYEKPMNELDKVVEKHKESYRRILGQLLVAEKSRRQTILELEEEKRKHKEYMEKSDEFICLLEQECERLKKLIDQEIKSQEEKEQEKEKRVTTLKEELTKLKSFALMVVDEQQRLTAQLTLQRQKIQELTTNAKETHTKLALAEARVQEEEQKATRLEKELQTQTTKFHQDQDTIMAKLTNEDSQNRQLQQKLAALSRQIDELEETNRSLRKAEEE
notes: Tested as GAL4 domain fusion in yeast two-hybrid and three-hybrid; fusion parts are not written as pieces; also called 265 residue polypeptide I-20
